# Assay results reported in the supplement of paper PMC6411743.
# ± gives the standard deviation of the averaged measurements. This is a selection; strong and weak results do not stand in their true shares.
# How the values were obtained:
# Test in all cases: NP40-soluble protein abundance relative to vehicle (solubility fold change) (ratio); higher = more soluble protein in presence of ATP
# [1] = molecular target: T1, A0A0A6YYL4|P57737-3|P57737-4 (UniProt P57737)
# T1 sequence (whole entry): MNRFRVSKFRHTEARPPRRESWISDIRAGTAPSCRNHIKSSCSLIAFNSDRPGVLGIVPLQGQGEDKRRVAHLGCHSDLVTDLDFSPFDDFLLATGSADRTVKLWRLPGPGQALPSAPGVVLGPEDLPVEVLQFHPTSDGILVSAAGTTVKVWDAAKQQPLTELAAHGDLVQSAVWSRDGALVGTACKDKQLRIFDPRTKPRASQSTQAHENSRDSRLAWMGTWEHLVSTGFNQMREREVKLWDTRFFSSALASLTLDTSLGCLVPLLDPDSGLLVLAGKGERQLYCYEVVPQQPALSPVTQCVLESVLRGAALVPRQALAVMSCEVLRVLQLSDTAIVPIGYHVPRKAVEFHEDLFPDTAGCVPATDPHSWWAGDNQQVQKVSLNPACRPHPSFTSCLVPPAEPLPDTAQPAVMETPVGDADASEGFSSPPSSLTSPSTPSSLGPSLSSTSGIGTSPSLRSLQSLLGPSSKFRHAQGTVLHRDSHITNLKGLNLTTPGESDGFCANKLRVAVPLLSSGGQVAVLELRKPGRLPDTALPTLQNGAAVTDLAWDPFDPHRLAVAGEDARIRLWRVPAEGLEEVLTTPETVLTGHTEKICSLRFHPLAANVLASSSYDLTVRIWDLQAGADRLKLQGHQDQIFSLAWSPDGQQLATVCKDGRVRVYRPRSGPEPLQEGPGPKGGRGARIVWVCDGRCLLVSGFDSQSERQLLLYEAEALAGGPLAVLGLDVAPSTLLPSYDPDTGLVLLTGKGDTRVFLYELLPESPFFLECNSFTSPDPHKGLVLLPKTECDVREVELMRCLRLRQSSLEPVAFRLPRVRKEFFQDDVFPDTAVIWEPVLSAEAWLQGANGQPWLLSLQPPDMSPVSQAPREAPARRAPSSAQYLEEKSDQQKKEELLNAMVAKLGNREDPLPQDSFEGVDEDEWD
# Method in brief: (§1)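 Crude Jurkat lysate, prepared by Dounce homogenisation, was exposed to eight concentrations from 0.1 to 10 mM for 10 min at room temperature and then 3 min at 37 °C. Solubilisation used 0.8% NP40 with benzonase for 60 min at 4 °C, followed by ultracentrifugation and TMT labelling of the supernatant for LC-MS/MS. After vsn normalisation of intensities, each value is the fold change against the detergent-processed vehicle within each replicate, across three independent experiments.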
# [2] = molecular target: T2, A0A0C3SFZ9|O14526 and related entries (UniProt O14526)
# T2 sequence (whole entry): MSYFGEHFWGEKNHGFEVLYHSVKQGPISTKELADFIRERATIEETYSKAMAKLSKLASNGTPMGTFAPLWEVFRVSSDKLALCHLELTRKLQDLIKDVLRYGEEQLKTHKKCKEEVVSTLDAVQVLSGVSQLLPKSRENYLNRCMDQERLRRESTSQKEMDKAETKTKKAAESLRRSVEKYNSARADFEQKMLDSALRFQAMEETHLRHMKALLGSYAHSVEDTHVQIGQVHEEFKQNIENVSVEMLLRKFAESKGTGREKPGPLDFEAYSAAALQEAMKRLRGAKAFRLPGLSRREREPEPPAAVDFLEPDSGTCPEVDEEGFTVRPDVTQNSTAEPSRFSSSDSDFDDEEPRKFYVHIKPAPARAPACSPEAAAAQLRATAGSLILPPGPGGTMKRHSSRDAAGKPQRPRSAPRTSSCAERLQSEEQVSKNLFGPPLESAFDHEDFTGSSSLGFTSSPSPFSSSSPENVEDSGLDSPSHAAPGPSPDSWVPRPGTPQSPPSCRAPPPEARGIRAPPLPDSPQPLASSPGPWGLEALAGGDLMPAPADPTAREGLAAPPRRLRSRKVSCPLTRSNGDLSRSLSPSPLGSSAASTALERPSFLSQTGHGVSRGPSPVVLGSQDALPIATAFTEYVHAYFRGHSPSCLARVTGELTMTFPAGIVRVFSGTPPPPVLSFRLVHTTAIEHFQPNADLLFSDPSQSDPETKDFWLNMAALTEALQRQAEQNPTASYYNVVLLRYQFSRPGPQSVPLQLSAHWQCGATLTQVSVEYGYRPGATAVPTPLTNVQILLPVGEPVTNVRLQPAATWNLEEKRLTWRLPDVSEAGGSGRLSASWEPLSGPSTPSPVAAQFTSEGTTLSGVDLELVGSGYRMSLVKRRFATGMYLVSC
# Method in brief: as §1
# A0A0C4DFV0|Q9H469 = molecular target: T3, A0A0C4DFV0|Q9H469 (UniProt Q9H469)
# T3 sequence (whole entry): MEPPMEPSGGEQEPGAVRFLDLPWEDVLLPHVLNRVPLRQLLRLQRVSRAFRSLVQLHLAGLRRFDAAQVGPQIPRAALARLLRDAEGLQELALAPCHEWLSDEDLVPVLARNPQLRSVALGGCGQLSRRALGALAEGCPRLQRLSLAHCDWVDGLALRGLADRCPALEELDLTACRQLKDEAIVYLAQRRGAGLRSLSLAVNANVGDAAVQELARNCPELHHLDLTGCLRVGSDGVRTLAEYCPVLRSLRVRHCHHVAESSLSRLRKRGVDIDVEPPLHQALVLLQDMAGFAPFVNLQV
# Method in brief: as §1
# A0A0C4DG89|Q7L014 = molecular target: T4, A0A0C4DG89|Q7L014 (UniProt Q7L014)
# T4 sequence (whole entry): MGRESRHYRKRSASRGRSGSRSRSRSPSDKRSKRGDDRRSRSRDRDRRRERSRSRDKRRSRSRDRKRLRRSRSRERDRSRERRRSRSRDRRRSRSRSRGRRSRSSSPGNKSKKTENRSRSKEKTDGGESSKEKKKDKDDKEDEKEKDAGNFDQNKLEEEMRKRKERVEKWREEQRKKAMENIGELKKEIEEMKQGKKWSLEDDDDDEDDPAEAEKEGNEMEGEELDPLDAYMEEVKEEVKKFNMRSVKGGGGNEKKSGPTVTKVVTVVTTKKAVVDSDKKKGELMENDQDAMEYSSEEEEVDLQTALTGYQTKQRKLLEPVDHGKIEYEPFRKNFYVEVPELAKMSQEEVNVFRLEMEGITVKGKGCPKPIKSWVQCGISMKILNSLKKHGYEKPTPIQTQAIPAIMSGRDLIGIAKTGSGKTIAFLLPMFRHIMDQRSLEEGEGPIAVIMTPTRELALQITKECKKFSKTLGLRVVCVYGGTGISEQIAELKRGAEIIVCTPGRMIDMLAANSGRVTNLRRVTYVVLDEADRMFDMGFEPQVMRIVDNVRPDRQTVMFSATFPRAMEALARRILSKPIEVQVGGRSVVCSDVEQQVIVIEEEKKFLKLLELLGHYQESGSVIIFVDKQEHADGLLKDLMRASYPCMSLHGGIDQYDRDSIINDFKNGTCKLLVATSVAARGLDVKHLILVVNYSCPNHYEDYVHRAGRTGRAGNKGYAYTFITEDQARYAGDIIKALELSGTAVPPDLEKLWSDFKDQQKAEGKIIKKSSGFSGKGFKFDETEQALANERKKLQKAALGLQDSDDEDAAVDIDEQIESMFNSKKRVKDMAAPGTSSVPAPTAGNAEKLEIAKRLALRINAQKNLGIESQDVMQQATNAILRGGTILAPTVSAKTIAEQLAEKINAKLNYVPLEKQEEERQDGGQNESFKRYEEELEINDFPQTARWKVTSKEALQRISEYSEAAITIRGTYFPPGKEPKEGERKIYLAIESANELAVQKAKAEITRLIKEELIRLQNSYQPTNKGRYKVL
# Method in brief: as §1
# [3] = molecular target: T5, A0A0C4DGS5|B7ZC06 and related entries (UniProt Q08379)
# T5 sequence (whole entry): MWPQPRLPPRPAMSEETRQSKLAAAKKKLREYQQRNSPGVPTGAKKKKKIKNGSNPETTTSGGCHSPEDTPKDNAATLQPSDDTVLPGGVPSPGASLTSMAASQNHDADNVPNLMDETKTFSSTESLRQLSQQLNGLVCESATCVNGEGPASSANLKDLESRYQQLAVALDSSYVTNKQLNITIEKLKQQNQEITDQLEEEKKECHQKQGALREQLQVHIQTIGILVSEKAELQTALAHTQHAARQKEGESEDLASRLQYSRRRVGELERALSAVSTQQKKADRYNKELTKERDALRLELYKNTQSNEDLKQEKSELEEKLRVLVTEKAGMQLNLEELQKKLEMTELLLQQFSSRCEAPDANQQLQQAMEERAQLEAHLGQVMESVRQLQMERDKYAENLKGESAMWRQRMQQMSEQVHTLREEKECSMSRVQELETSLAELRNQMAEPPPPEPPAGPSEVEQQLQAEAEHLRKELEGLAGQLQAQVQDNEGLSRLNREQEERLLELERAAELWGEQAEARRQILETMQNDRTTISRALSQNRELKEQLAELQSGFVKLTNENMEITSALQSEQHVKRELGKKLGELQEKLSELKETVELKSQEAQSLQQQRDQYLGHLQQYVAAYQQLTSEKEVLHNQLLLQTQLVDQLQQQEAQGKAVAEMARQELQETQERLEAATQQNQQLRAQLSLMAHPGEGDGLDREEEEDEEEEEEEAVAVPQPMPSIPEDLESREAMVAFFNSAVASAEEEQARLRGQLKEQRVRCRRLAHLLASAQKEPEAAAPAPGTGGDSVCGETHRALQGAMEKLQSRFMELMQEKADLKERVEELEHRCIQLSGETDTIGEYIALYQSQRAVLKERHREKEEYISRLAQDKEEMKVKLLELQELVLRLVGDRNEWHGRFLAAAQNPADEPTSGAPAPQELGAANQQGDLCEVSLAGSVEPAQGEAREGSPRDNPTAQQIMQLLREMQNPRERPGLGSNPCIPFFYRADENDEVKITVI
# Method in brief: as §1
smiles,measurement,setting,value
Nc1ncnc2c1ncn2[C@@H]1O[C@H](COP(=O)(O)OP(=O)(O)OP(=O)(O)O)[C@@H](O)[C@H]1O [adenosine triphosphate],NP40-soluble protein abundance,[1]; concentration: 6mM,0.955 ± 0.034
same,NP40-soluble protein abundance,[1]; concentration: 8mM,0.96 ± 0.015
same,NP40-soluble protein abundance,[1]; concentration: 10mM,0.9419 ± 0.0061
same,NP40-soluble protein abundance,[2]; concentration: 1mM,0.947 ± 0.022
same,NP40-soluble protein abundance,[2]; concentration: 2mM,0.966 ± 0.01
same,NP40-soluble protein abundance,[2]; concentration: 4mM,0.98 ± 0.027
same,NP40-soluble protein abundance,[2]; concentration: 6mM,0.974 ± 0.054
same,NP40-soluble protein abundance,[2]; concentration: 8mM,0.94 ± 0.063
same,NP40-soluble protein abundance,[2]; concentration: 10mM,0.972 ± 0.0061
same,NP40-soluble protein abundance,A0A0C4DFV0|Q9H469; concentration: 1mM,0.994 ± 0.091
same,NP40-soluble protein abundance,A0A0C4DFV0|Q9H469; concentration: 2mM,1.01 ± 0.076
same,NP40-soluble protein abundance,A0A0C4DFV0|Q9H469; concentration: 4mM,1.04 ± 0.027
same,NP40-soluble protein abundance,A0A0C4DFV0|Q9H469; concentration: 6mM,1.02 ± 0.042
same,NP40-soluble protein abundance,A0A0C4DFV0|Q9H469; concentration: 8mM,0.999 ± 0.074
same,NP40-soluble protein abundance,A0A0C4DFV0|Q9H469; concentration: 10mM,1.01 ± 0.12
same,NP40-soluble protein abundance,A0A0C4DG89|Q7L014; concentration: 1mM,1.11 ± 0.034
same,NP40-soluble protein abundance,A0A0C4DG89|Q7L014; concentration: 2mM,1.1 ± 0.018
same,NP40-soluble protein abundance,A0A0C4DG89|Q7L014; concentration: 4mM,1.1 ± 0.021
same,NP40-soluble protein abundance,A0A0C4DG89|Q7L014; concentration: 6mM,1.16 ± 0.022
same,NP40-soluble protein abundance,A0A0C4DG89|Q7L014; concentration: 8mM,1.13 ± 0.015
same,NP40-soluble protein abundance,A0A0C4DG89|Q7L014; concentration: 10mM,1.14 ± 0.033
same,NP40-soluble protein abundance,[3]; concentration: 1mM,0.943 ± 0.056
same,NP40-soluble protein abundance,[3]; concentration: 2mM,0.957 ± 0.041
same,NP40-soluble protein abundance,[3]; concentration: 4mM,0.961 ± 0.05
same,NP40-soluble protein abundance,[3]; concentration: 6mM,1.01 ± 0.07
same,NP40-soluble protein abundance,[3]; concentration: 8mM,0.941 ± 0.045
same,NP40-soluble protein abundance,[3]; concentration: 10mM,0.974 ± 0.029

# Fetched one by one from the entries so far:
smiles,measurement,setting,value
Nc1ncnc2c1ncn2[C@@H]1O[C@H](COP(=O)(O)OP(=O)(O)OP(=O)(O)O)[C@@H](O)[C@H]1O [adenosine triphosphate],NP40-soluble protein abundance,[2]; concentration: 6mM,0.974 ± 0.054
same,NP40-soluble protein abundance,A0A0C4DFV0|Q9H469; concentration: 8mM,0.999 ± 0.074
